Results are given in words; binding and its absence hold for the method and conditions named. A result given as binding can be weak or reduced; the word gives no strength. Sequences can lack the tags named with a protein.
Biological target: GST-N1ICD/N (GST-tagged N-terminal fragment of the Notch1 ICD) (mouse)
Assay: pull-down; purified GST-N1ICD/N on glutathione-Sepharose 4B incubated overnight with purified GIT1-His; washed with buffer A + 50 mM NaCl; both purified

B1: GIT1-His (recombinant His-tagged GIT1) (protein, UniProt Q68FF6 1-770)
chain: MSRKGPRAEVCADCSAPDPGWASISRGVLVCDECCSVHRSLGRHISIVKHLRHSAWPPTLLQMVHTLASNGANSIWEHSLLDPAQVQSGRRKANPQDKVHPIKSEFIRAKYQMLAFVHKLPCRDDDGVTAKDLSKQLHSSVRTGNLETCLRLLSLGAQANFFHPEKGTTPLHVAAKAGQTLQAELLVVYGADPGSPDVNGRTPIDYARQAGHHELAERLVECQYELTDRLAFYLCGRKPDHKNGHYIIPQMADRSRQKCMSQSLDLSELAKAAKKKLQALSNRLFEELAMDVYDEVDRRENDAVWLATQNHSTLVTERSAVPFLPVNPEYSATRNQGRQKLARFNAREFATLIIDILSEAKRRQQGKSLSSPTDNLELSARSQSELDDQHDYDSVASDEDTDQEPLPSAGATRNNRARSMDSSDLSDGAVTLQEYLELKKALATSEAKVQQLMKVNSSLSDELRRLQREIHKLQAENLQLRQPPGPVPPPSLPSERAEHTLMGPGGSTHRRDRQAFSMYEPGSALKPFGGTPGDELATRLQPFHSTELEDDAIYSVHVPAGLYRIRKGVSASSVPFTPSSPLLSCSQEGSRHASKLSRHGSGADSDYENTQSGDPLLGLEGKRFLELSKEDELHPELESLDGDLDPGLPSTEDVILKTEQVTKNIQELLRAAQEFKHDSFVPCSEKIHLAVTEMASLFPKRPALEPVRSSLRLLNASAYRLQSECRKTVPPEPGAPVDFQLLTQQVIQCAYDIAKAAKQLVTITTREKKQ
  binding: binds

Source: publication PMC8940956
